In article PMC6321601 (Molecules, 2018):

Tested on: HepG-2 and L-O2 cell lines
Test: Therapeutic index, ratio of IC50 for L-O2 to IC50 for HepG-2
Assay type: cell-based, human
Settings: IC50 (L-O2)/IC50 (HepG-2)

COc1cccc2c1C(=O)c1c(O)c3c(c(O)c1C2=O)C[C@@](O)(C(=O)CO)C[C@@H]3O[C@H]1C[C@H](N)[C@H](O)[C@H](C)O1 [ADR, adriamycin, reference compound]
TI (Therapeutic Index): 0.14

CCC(=O)O[C@@H]1C[C@@]2(C)C3CC=C4C(C[C@H](O)C(=O)C4(C)C)[C@]3(C)C(=O)C[C@]2(C)C1[C@@](C)(O)C(=O)/C=C/C(C)(C)OC(C)=O (stereo partly drawn) [Compound 3a, (2S,9R,13R,14S,16R)-17-((R,E)-6-Acetoxy-2-hydroxy-6-methyl-3-oxohept-4-en-2-yl)-2-hydroxy-4,4,9,13,14-pentamethyl-3,11-dioxo-2,3,4,7,8,9,10,11,12,13,14,15,16,17-tetradecahydro-1H-cyclopenta[a]phenanthren-16-yl propionate]
TI (Therapeutic Index): 1

CC(=O)OC(C)(C)/C=C/C(=O)[C@](C)(O)C1[C@H](OC(=O)C2CCC2)C[C@@]2(C)C3CC=C4C(CC(O)C(=O)C4(C)C)[C@]3(C)C(=O)C[C@]12C (stereo partly drawn) [Compound 3b, (9R,13R,14S,16R)-17-((R,E)-6-Acetoxy-2-hydroxy-6-methyl-3-oxohept-4-en-2-yl)-2-hydroxy-4,4,9,13,14-pentamethyl-3,11-dioxo-2,3,4,7,8,9,10,11,12,13,14,15,16,17-tetradecahydro-1H-cyclopenta[a]phenanthren-16-yl cyclobutanecarboxylate]
TI (Therapeutic Index): 0.96

CC(=O)OC(C)(C)/C=C/C(=O)[C@](C)(O)C1[C@H](OC(=O)C2CCCC2)C[C@@]2(C)C3CC=C4C(C[C@H](O)C(=O)C4(C)C)[C@]3(C)C(=O)C[C@]12C (stereo partly drawn) [Compound 3c, (2S,9R,13R,14S,16R)-17-((R,E)-6-Acetoxy-2-hydroxy-6-methyl-3-oxohept-4-en-2-yl)-2-hydroxy-4,4,9,13,14-pentamethyl-3,11-dioxo-2,3,4,7,8,9,10,11,12,13,14,15,16,17-tetradecahydro-1H-cyclopenta[a]phenanthren-16-yl cyclopentanecarboxylate]
TI (Therapeutic Index): 0.97

CC(=O)OC(C)(C)/C=C/C(=O)[C@](C)(O)C1[C@H](OC(=O)CCCCNC(=O)OC(C)(C)C)C[C@@]2(C)C3CC=C4C(C[C@H](O)C(=O)C4(C)C)[C@]3(C)C(=O)C[C@]12C (stereo partly drawn) [Compound 3d, (2S,9R,13R,14S,16R)-17-((R,E)-6-Acetoxy-2-hydroxy-6-methyl-3-oxohept-4-en-2-yl)-2-hydroxy-4,4,9,13,14-pentamethyl-3,11-dioxo-2,3,4,7,8,9,10,11,12,13,14,15,16,17-tetradecahydro-1H-cyclopenta[a]phenanthren-16-yl 5-((tert-butoxycarbonyl)amino)pentanoate]
TI (Therapeutic Index): 1.64

CC(=O)OC(C)(C)/C=C/C(=O)[C@](C)(O)C1[C@H](OC(=O)CCCCN(C)C(=O)OC(C)(C)C)C[C@@]2(C)C3CC=C4C(C[C@H](O)C(=O)C4(C)C)[C@]3(C)C(=O)C[C@]12C (stereo partly drawn) [Compound 3e, (2S,9R,13R,14S,16R)-17-((R,E)-6-Acetoxy-2-hydroxy-6-methyl-3-oxohept-4-en-2-yl)-2-hydroxy-4,4,9,13,14-pentamethyl-3,11-dioxo-2,3,4,7,8,9,10,11,12,13,14,15,16,17-tetradecahydro-1H-cyclopenta[a]phenanthren-16-yl 5-((tert-butoxycarbonyl)(methyl)amino)pentanoate]
TI (Therapeutic Index): 0.59

CC(=O)OC(C)(C)/C=C/C(=O)[C@](C)(O)C1[C@H](OC(=O)CCCN(C)C(=O)OC(C)(C)C)C[C@@]2(C)C3CC=C4C(C[C@H](O)C(=O)C4(C)C)[C@]3(C)C(=O)C[C@]12C (stereo partly drawn) [Compound 3f, (2S,9R,13R,14S,16R)-17-((R,E)-6-Acetoxy-2-hydroxy-6-methyl-3-oxohept-4-en-2-yl)-2-hydroxy-4,4,9,13,14-pentamethyl-3,11-dioxo-2,3,4,7,8,9,10,11,12,13,14,15,16,17-tetradecahydro-1H-cyclopenta[a]phenanthren-16-yl 4-((tert-butoxycarbonyl)(methyl)amino)butanoate]
TI (Therapeutic Index): 0.44

CC(=O)OC(C)(C)/C=C/C(=O)[C@](C)(O)C1[C@H](OC(=O)CCc2ccccc2NC(=O)OC(C)(C)C)C[C@@]2(C)C3CC=C4C(C[C@H](O)C(=O)C4(C)C)[C@]3(C)C(=O)C[C@]12C (stereo partly drawn) [Compound 3g, (2S,9R,13R,14S,16R)-17-((R,E)-6-Acetoxy-2-hydroxy-6-methyl-3-oxohept-4-en-2-yl)-2-hydroxy-4,4,9,13,14-pentamethyl-3,11-dioxo-2,3,4,7,8,9,10,11,12,13,14,15,16,17-tetradecahydro-1H-cyclopenta[a]phenanthren-16-yl 3-(2-((tert-butoxycarbonyl)amino)phenyl)propanoate]
TI (Therapeutic Index): 0.19

CC(=O)OC(C)(C)/C=C/C(=O)[C@](C)(O)C1[C@H](OC(=O)c2ccc(C)cc2)C[C@@]2(C)C3CC=C4C(C[C@H](O)C(=O)C4(C)C)[C@]3(C)C(=O)C[C@]12C (stereo partly drawn) [Compound 3h, (2S,9R,13R,14S,16R)-17-((R,E)-6-Acetoxy-2-hydroxy-6-methyl-3-oxohept-4-en-2-yl)-2-hydroxy-4,4,9,13,14-pentamethyl-3,11-dioxo-2,3,4,7,8,9,10,11,12,13,14,15,16,17-tetradecahydro-1H-cyclopenta[a]phenanthren-16-yl 4-methylbenzoate]
TI (Therapeutic Index): 0.72

CC(=O)OC(C)(C)/C=C/C(=O)[C@](C)(O)C1[C@H](OC(=O)c2ccc(F)cc2)C[C@@]2(C)C3CC=C4C(C[C@H](O)C(=O)C4(C)C)[C@]3(C)C(=O)C[C@]12C (stereo partly drawn) [Compound 3i, (2S,9R,13R,14S,16R)-17-((R,E)-6-Acetoxy-2-hydroxy-6-methyl-3-oxohept-4-en-2-yl)-2-hydroxy-4,4,9,13,14-pentamethyl-3,11-dioxo-2,3,4,7,8,9,10,11,12,13,14,15,16,17-tetradecahydro-1H-cyclopenta[a]phenanthren-16-yl 4-fluorobenzoate]
TI (Therapeutic Index): 0.60

CC(=O)OC(C)(C)/C=C/C(=O)[C@](C)(O)C1[C@H](OC(=O)c2ccc(Cl)cc2)C[C@@]2(C)C3CC=C4C(C[C@H](O)C(=O)C4(C)C)[C@]3(C)C(=O)C[C@]12C (stereo partly drawn) [Compound 3j, (2S,9R,13R,14S,16R)-17-((R,E)-6-Acetoxy-2-hydroxy-6-methyl-3-oxohept-4-en-2-yl)-2-hydroxy-4,4,9,13,14-pentamethyl-3,11-dioxo-2,3,4,7,8,9,10,11,12,13,14,15,16,17-tetradecahydro-1H-cyclopenta[a]phenanthren-16-yl 4-chlorobenzoate]
TI (Therapeutic Index): 0.76

CC(=O)OC(C)(C)/C=C/C(=O)[C@](C)(O)C1[C@H](OC(=O)c2ccc(Br)cc2)C[C@@]2(C)C3CC=C4C(C[C@H](O)C(=O)C4(C)C)[C@]3(C)C(=O)C[C@]12C (stereo partly drawn) [Compound 3k, (2S,9R,13R,14S,16R)-17-((R,E)-6-Acetoxy-2-hydroxy-6-methyl-3-oxohept-4-en-2-yl)-2-hydroxy-4,4,9,13,14-pentamethyl-3,11-dioxo-2,3,4,7,8,9,10,11,12,13,14,15,16,17-tetradecahydro-1H-cyclopenta[a]phenanthren-16-yl 4-bromobenzoate]
TI (Therapeutic Index): 0.65

COc1ccc(C(=O)O[C@@H]2C[C@@]3(C)C4CC=C5C(C[C@H](O)C(=O)C5(C)C)[C@]4(C)C(=O)C[C@]3(C)C2[C@@](C)(O)C(=O)/C=C/C(C)(C)OC(C)=O)cc1 (stereo partly drawn) [Compound 3l, (2S,9R,13R,14S,16R)-17-((R,E)-6-Acetoxy-2-hydroxy-6-methyl-3-oxohept-4-en-2-yl)-2-hydroxy-4,4,9,13,14-pentamethyl-3,11-dioxo-2,3,4,7,8,9,10,11,12,13,14,15,16,17-tetradecahydro-1H-cyclopenta[a]phenanthren-16-yl 4-methoxybenzoate]
TI (Therapeutic Index): 0.67

CC(=O)OC(C)(C)/C=C/C(=O)[C@](C)(O)C1[C@H](OC(=O)c2ccc([N+](=O)[O-])cc2)C[C@@]2(C)C3CC=C4C(C[C@H](O)C(=O)C4(C)C)[C@]3(C)C(=O)C[C@]12C (stereo partly drawn) [Compound 3m, (2S,9R,13R,14S,16R)-17-((R,E)-6-Acetoxy-2-hydroxy-6-methyl-3-oxohept-4-en-2-yl)-2-hydroxy-4,4,9,13,14-pentamethyl-3,11-dioxo-2,3,4,7,8,9,10,11,12,13,14,15,16,17-tetradecahydro-1H-cyclopenta[a]phenanthren-16-yl 4-nitrobenzoate]
TI (Therapeutic Index): 0.8

CC(=O)OC(C)(C)/C=C/C(=O)[C@](C)(O)C1[C@H](OC(=O)c2cccc(F)c2)C[C@@]2(C)C3CC=C4C(C[C@H](O)C(=O)C4(C)C)[C@]3(C)C(=O)C[C@]12C (stereo partly drawn) [Compound 3n, (2S,9R,13R,14S,16R)-17-((R,E)-6-Acetoxy-2-hydroxy-6-methyl-3-oxohept-4-en-2-yl)-2-hydroxy-4,4,9,13,14-pentamethyl-3,11-dioxo-2,3,4,7,8,9,10,11,12,13,14,15,16,17-tetradecahydro-1H-cyclopenta[a]phenanthren-16-yl 3-fluorobenzoate]
TI (Therapeutic Index): 0.61

CC(=O)OC(C)(C)/C=C/C(=O)[C@](C)(O)C1[C@H](OC(=O)C=Cc2ccccc2)C[C@@]2(C)C3CC=C4C(C[C@H](O)C(=O)C4(C)C)[C@]3(C)C(=O)C[C@]12C (stereo partly drawn) [Compound 3o, (2S,9R,13R,14S,16R)-17-((R,E)-6-Acetoxy-2-hydroxy-6-methyl-3-oxohept-4-en-2-yl)-2-hydroxy-4,4,9,13,14-pentamethyl-3,11-dioxo-2,3,4,7,8,9,10,11,12,13,14,15,16,17-tetradecahydro-1H-cyclopenta[a]phenanthren-16-yl cinnamate]
TI (Therapeutic Index): 2.9

CC(=O)OC(C)(C)/C=C/C(=O)[C@](C)(O)C1[C@H](OC(=O)/C=C/c2ccc(C#N)cc2)C[C@@]2(C)C3CC=C4C(C[C@H](O)C(=O)C4(C)C)[C@]3(C)C(=O)C[C@]12C (stereo partly drawn) [Compound 3p, (2S,9R,13R,14S,16R)-17-((R,E)-6-Acetoxy-2-hydroxy-6-methyl-3-oxohept-4-en-2-yl)-2-hydroxy-4,4,9,13,14-pentamethyl-3,11-dioxo-2,3,4,7,8,9,10,11,12,13,14,15,16,17-tetradecahydro-1H-cyclopenta[a]phenanthren-16-yl (E)-3-(4-cyanophenyl)acrylate]
TI (Therapeutic Index): 0.63
